Data from PMC7819943, “Rice protein-binding microarrays: a tool to detect cis-acting elements near promoter regions in rice”.
Some of the results follow.

Chains of the proteins cited; added tags and fusions are not shown.
UniProt Q0JBA9, entry or part of it: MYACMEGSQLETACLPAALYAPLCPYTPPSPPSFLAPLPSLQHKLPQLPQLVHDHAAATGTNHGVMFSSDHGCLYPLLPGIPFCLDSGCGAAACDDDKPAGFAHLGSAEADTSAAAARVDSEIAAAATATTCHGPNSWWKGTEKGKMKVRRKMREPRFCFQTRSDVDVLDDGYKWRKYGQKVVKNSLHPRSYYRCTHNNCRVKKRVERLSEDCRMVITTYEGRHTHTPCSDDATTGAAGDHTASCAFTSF

What follows are sequences tested against OsWRKY34 (Oryza sativa, UniProt Q0JBA9 1-250) (assay: protein-binding microarray (RPBM); PBS, 2% BSA, 51.3 ng/ul salmon testes DNA, 50 uM zinc acetate, 200 nM TF, 25 C, 1 h; high values mean tight binding). Conditions: protein: recombinant; tags: N-terminal polyhistidine and DsRed monomer fusion (pET32a); label: CyDye5-dUTP incorporated in the synthesized complementary strand; 3' TTTTT single-stranded linker to array surface; dsDNA, one strand shown.
Method in brief: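 Transcription factors, each fused N-terminally to a polyhistidine tag and DsRed, were expressed in E. coli BL21-CodonPlus and purified on Ni–NTA. A custom Agilent array was made double-stranded by primer extension with Cy5-dUTP and blocked with 2% BSA. It was incubated with 200 nM protein in PBS, 2% BSA, salmon testes DNA and 50 µM zinc acetate at 25 °C for 1 h, then washed. The binding signal is per-feature fluorescence intensity (arbitrary units) read on an Axon 4000B scanner.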
For “GTATTCATGCATTTATCCACGAGTTCATCCTTATTGCTTTCGGAGTCACCTAGTGCAG”, the binding signal was 11200 fluorescence intensity (a.u.). “TTGTGTTCTCTCCGTAGTTTTTCTCAAAGGCATGTATATGCGGAGTCACCTAGTGCAG” was tested, and the binding signal was 8550 fluorescence intensity (a.u.). With “ATCGCGGTGCAGTAATCACACACTAATCACTAATCACTCACGGAGTCACCTAGTGCAG” the binding signal was 8220 fluorescence intensity (a.u.). In the case of “TTCGCCCGTGCCCGAGCATGCTGCCGCCCGTGCCCGAGCTCGGAGTCACCTAGTGCAG”, the binding signal is reported as 9870 fluorescence intensity (a.u.). “GTAAGCAGTGACAGAATCCGCGCCGCCTCTCGGGGCGCCCCGGAGTCACCTAGTGCAG” was tested, and the binding signal was 8250 fluorescence intensity (a.u.). For “CCACCGTCGCCGATTCCACCGCTGCCACGGACAACCCCGCCGGAGTCACCTAGTGCAG”, the binding signal was 8870 fluorescence intensity (a.u.). With “AACCAAACCCAACCCGTCCACTGCTCCCGTTTTATAATCCCGGAGTCACCTAGTGCAG” the binding signal was 9470 fluorescence intensity (a.u.). For “TGTAGGAGAACATCCCCACCTGCCCCAACCATGTCGGCGCCGGAGTCACCTAGTGCAG”, the binding signal was 8720 fluorescence intensity (a.u.). For “AAGTGGCCTCACTCATGCTCTAACTAACTGATCTCTTTCTCGGAGTCACCTAGTGCAG”, the binding signal was 8700 fluorescence intensity (a.u.). For “AAACCATTCGCCCGATTTGATCCACATCACCACTTTGGTTCGGAGTCACCTAGTGCAG”, the binding signal was 8820 fluorescence intensity (a.u.). “TCTATTTTTCTTTTGTTTTCTCTCTCTACTATTTCCTTCCCGGAGTCACCTAGTGCAG” was tested, and the binding signal was 8360 fluorescence intensity (a.u.). With “TAAGCAGAGACCACAGACACACACACTTTATGCTTGGCTACGGAGTCACCTAGTGCAG” the binding signal was 8690 fluorescence intensity (a.u.). For “TTAGGATTATACTGGCAGTATGTTTGATTTGTTTTCTTTCCGGAGTCACCTAGTGCAG”, the binding signal was 8280 fluorescence intensity (a.u.). With “CGGGTAGGGTGGGGTGGGGCGGGGTGGGGTTGGCGGCGACCGGAGTCACCTAGTGCAG” the binding signal was 39500 fluorescence intensity (a.u.). In the case of “ATCTATTTTGTTGCACTCATTTTTTTTTTTTTGTCTATTCCGGAGTCACCTAGTGCAG”, the binding signal is reported as 10200 fluorescence intensity (a.u.). With “AATCCACACCTATTGAGTAAGTACTCATTCCATCTATTTTCGGAGTCACCTAGTGCAG” the binding signal was 8580 fluorescence intensity (a.u.). In the case of “GGTCATGCCTTACTACTGCACCTACTTCTTCACAGCAACCCGGAGTCACCTAGTGCAG”, the binding signal is reported as 8630 fluorescence intensity (a.u.). For “CCCAACTCCGACGCTTCCTCCGCCCCGGCGATCGCCGCCACGGAGTCACCTAGTGCAG”, the binding signal was 10300 fluorescence intensity (a.u.). For “TTCCAAACGGGCCTGAACTCCGCCCATCCTACGCTTATTACGGAGTCACCTAGTGCAG”, the binding signal was 8440 fluorescence intensity (a.u.). In the case of “TTTTCTGTGTTGGGTCTGGGTCGGGCTGGGCCGGCGCTGGCGGAGTCACCTAGTGCAG”, the binding signal is reported as 10700 fluorescence intensity (a.u.). For “GCCTCTTGCATTTGCTGCCGCCGCCGCCCCGACCGCCGCACGGAGTCACCTAGTGCAG”, the binding signal was 9560 fluorescence intensity (a.u.). In the case of “AAAGGTGAGTAGTGGTTTCTGGGTTGCGTCTCCCTTTTTCCGGAGTCACCTAGTGCAG”, the binding signal is reported as 12600 fluorescence intensity (a.u.). In the case of “ATTTGGTTTTGCGGTTCGAGGACGTTTTTATATTCCGATGCGGAGTCACCTAGTGCAG”, the binding signal is reported as 8140 fluorescence intensity (a.u.). “CTCTCTCTCGTCTATCGCACGCACCTTTTTTAAACTGCTACGGAGTCACCTAGTGCAG” was tested, and the binding signal was 8410 fluorescence intensity (a.u.). In the case of “GCCAACCGCTGCCACCGCCGCTCCGCTCCCGCGCTCTTGGCGGAGTCACCTAGTGCAG”, the binding signal is reported as 8960 fluorescence intensity (a.u.). “ATATCTTGGACTCGGTCCTATCTGTCCGTGCCTCGCTTCCCGGAGTCACCTAGTGCAG” was tested, and the binding signal was 9340 fluorescence intensity (a.u.). “GGCTGTATTTATTTATCAAAAGTATTTATCTCTTAAACACCGGAGTCACCTAGTGCAG” was tested, and the binding signal was 8100 fluorescence intensity (a.u.). “GCTGACTTCTATTCCCTGCTCGCCCAATCGAATCCGGCGCCGGAGTCACCTAGTGCAG” was tested, and the binding signal was 11700 fluorescence intensity (a.u.). In the case of “AACTCAGGACCGGTAAATTCGCTATCGGTTTTTTCGGTCTCGGAGTCACCTAGTGCAG”, the binding signal is reported as 8650 fluorescence intensity (a.u.). With “CGATCCATCCACTCCTCGAGATTTCGGCGGAATGCCTCCGCGGAGTCACCTAGTGCAG” the binding signal was 8230 fluorescence intensity (a.u.). In the case of “TTACTGTACTGCTGCTACCACTAATGTTCTTTCTCTCCATCGGAGTCACCTAGTGCAG”, the binding signal is reported as 8750 fluorescence intensity (a.u.). With “TGCCACCGACACACTCCACTCCTCGCTGCCGCCGCCGCCGCGGAGTCACCTAGTGCAG” the binding signal was 11100 fluorescence intensity (a.u.). With “GCTTGCCAACTTGTCCCAAATTTCCTTCGGCGTTTTTTCACGGAGTCACCTAGTGCAG” the binding signal was 10800 fluorescence intensity (a.u.). For “AGTGCGCGCTTCTTCTTCGTTTGTCGCCGATCGTTTTTGTCGGAGTCACCTAGTGCAG”, the binding signal was 11300 fluorescence intensity (a.u.). “TTATTTCCTGTTTGCAATTTCATATTACTTCTCATATTATCGGAGTCACCTAGTGCAG” was tested, and the binding signal was 8300 fluorescence intensity (a.u.). For “ATTTATGTTTGCATGTTATCTTGACCTACTTTGTCCTGTCCGGAGTCACCTAGTGCAG”, the binding signal was 10000 fluorescence intensity (a.u.). In the case of “CCCACACGCCAGAGTCTCAGCTTGCCTCGTTGTCACTCACCGGAGTCACCTAGTGCAG”, the binding signal is reported as 8230 fluorescence intensity (a.u.). For “CAACGGCCAACCTCCGACATTGTACTTGTCAGTTGTCACTCGGAGTCACCTAGTGCAG”, the binding signal was 8810 fluorescence intensity (a.u.). For “AATTGTTTGTTTTTTAATCTTCTGTGTCACAGTCTTCTGACGGAGTCACCTAGTGCAG”, the binding signal was 9290 fluorescence intensity (a.u.). With “GTCAAACATCAACTTTTCCGTCACATCAAATGTTTGGACACGGAGTCACCTAGTGCAG” the binding signal was 8670 fluorescence intensity (a.u.). For “GATTAGTGAGAGGGGCAGGGTGGGTGCCGCAGCTCCTGCACGGAGTCACCTAGTGCAG”, the binding signal was 10500 fluorescence intensity (a.u.). “AATTTTTACTCTCTGTTTTGGCCTCCTAAAAATTCAAACCCGGAGTCACCTAGTGCAG” was tested, and the binding signal was 9510 fluorescence intensity (a.u.).
